According to publication PMC3346761, “Insight into the Assembly Properties and Functional Organisation of the Magnetotactic Bacterial Actin-like Homolog, MamK” (PLoS ONE, 2012):
These are yes or no findings as the source states them, for the method shown. Some results given as binding are weak or reduced against the parent protein; the word gives no strength. Sequences can lack the tags named with a protein.

Assays:
[1] = target: MamK from Magnetospirillum gryphiswaldense MSR-1, C-terminal poly-histidine-tagged (Magnetospirillum gryphiswaldense MSR-1) (UniProt Q6NE59); test: co-sedimentation; MamK dialysed against polymerisation buffer with Mg2+, no ATP, ultracentrifugation at 90,000 g, 4°C; both purified
[2] = target: MamK from Magnetospirillum gryphiswaldense MSR-1, C-terminal poly-histidine-tagged (Magnetospirillum gryphiswaldense MSR-1) (UniProt Q6NE59); test: dynamic light scattering (size distribution); hydrodynamic diameters with Mg2+ and ATP; 1, 2, 4 and 6 µM at 30°C; 30, 45 and 65°C; both purified
[3] = target: MamK from Magnetospirillum gryphiswaldense MSR-1, C-terminal poly-histidine-tagged (Magnetospirillum gryphiswaldense MSR-1) (UniProt Q6NE59); test: native gel or EMSA; 7.5% native polyacrylamide gel after incubation at room temperature with divalent cations, without ATP; data not shown; both purified
[4] = target: MamK from Magnetospirillum gryphiswaldense MSR-1, C-terminal poly-histidine-tagged (Magnetospirillum gryphiswaldense MSR-1) (UniProt Q6NE59); test: negative-stain transmission electron microscopy; purified MamK (1 mg/ml) in polymerisation buffer with 0.2 mM ATγP, 30°C, 15 or 30 min, 2% uranyl acetate; both purified
[5] = target: MamK from Magnetospirillum gryphiswaldense MSR-1, C-terminal poly-histidine-tagged (Magnetospirillum gryphiswaldense MSR-1) (UniProt Q6NE59); test: light scattering (90° optics, time course); polymerisation started with 0.2 mM ATP in polymerisation buffer (10 mM imidazole, 1 mM MgCl2, 0.1 mM EGTA, 20 mM KCl) pH 7.0, 30°C, 2-20 µM MamK, 400 nm, 1000 s; high salt (100 mM NaCl or KCl) lowered the signal at least 150-fold; both purified

- binding [1]: binds
- binding [2]: binds
- binding [3]: binds
- binding [4]: binds
- binding [5]: binds
B1: MamK from Magnetospirillum gryphiswaldense MSR-1, C-terminal poly-histidine-tagged (natural protein, UniProt Q6NE59 1-360, looked up)
chain: MWIDLLARERSDKMSEGEGQAKNRLFLGIDLGTSHTAVMTSRGKKFLLKSVVGYPKDVIGLKLLGRPYVVGDEAFEMRSYLDLRYPLQDGVLSEISDRDIEVARHLLTHVVKSAEPGANDEICAVIGVPARASGANKALLLKMAQEVVHTALVVSEPFMVGYGLDKLNNTIIVDIGAGTTDICALKGTVPGPEDQVTLTKAGNYLDERLQNAILERHPELQMNTNVACAVKEQFSFVGARGEAATFEFRAAGKPVRCDVTESVKIACEALMPDIIESIEILLRSFQPEYQATVLQNIVFAGGGSRIRGLAAYVKDKLRPFGNADVTCVKDPTFDGCRGALRLAEELPPQYWCQLGDVSGQ
notes: MamK, actin-like protein of M. gryphiswaldense MSR-1; mamK gene (1083 bp) cut from a MamK-pGEM construct with SalI/EcoRI and sub-cloned into pET29b; purified as a 42 KDa protein; No cleavage of the tag is described; also called His-MamK; His-tagged MamK
